Source: PMC10279719
Where a chain is given by its changes, count along the chain named. Results are given in words; binding and its absence hold for the method and conditions named. For some of these results: In cells and extracts the contact can be indirect. Some results given as binding are weak or reduced against the parent protein; the word gives no strength. For some of these results: Where a sequence is shown, tags or fusion partners need not be part of it.

How the values were obtained:
[1] = target: full length CrkII, dimer (CrkIIFL dimer) (human), P46108; test: SEC; S75 16/600 profile of the purified CrkII constructs, with SDS-PAGE of fractions; both purified; conditions: remark: other sources report otherwise
[2] = target: full length CrkII, dimer (CrkIIFL dimer) (human), P46108; test: SEC; S200 10/300, 50 µM purified CrkIIFL dimer or monomer re-run after thawing and after 45 h at 4 °C; 20 mM HEPES pH 7.5, 150 mM NaCl, 1 mM TCEP; both purified; conditions: remark: other sources report otherwise
[3] = target: T1, HA-tagged PEAK3FL WT (human), Q6ZS72; test: co-IP; anti-HA agarose IP from lysates of HEK293 cells expressing HA-PEAK3FL WT or mutants (alone or with Flag-PEAK3FL WT), Western blot; conditions: remark: other sources report otherwise
T1 chain: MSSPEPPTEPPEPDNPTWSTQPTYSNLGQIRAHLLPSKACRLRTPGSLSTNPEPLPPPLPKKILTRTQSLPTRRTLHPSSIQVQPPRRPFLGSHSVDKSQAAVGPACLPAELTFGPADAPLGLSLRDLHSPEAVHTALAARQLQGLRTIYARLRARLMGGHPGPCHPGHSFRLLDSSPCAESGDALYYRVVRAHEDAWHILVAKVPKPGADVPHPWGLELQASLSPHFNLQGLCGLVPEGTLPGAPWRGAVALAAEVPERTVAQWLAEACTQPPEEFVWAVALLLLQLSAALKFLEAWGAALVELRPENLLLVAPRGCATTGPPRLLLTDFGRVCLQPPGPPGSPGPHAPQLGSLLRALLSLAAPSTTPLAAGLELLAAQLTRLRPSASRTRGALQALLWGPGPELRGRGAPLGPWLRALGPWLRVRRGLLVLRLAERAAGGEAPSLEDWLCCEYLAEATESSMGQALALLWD

[4] = target: T2, HA-tagged PEAK3^FL WT (human), Q6ZS72; test: co-IP; HEK293 cells transfected with HA-PEAK3^FL forms (alone or with Flag-PEAK3^FL WT), lysates on anti-HA agarose at 4 °C overnight, Western blot; conditions: remark: other sources report otherwise
T2 chain: T1 chain

[5] = target: T3, HA-tagged PEAK3FL WT (human) (UniProt Q6ZS72); test: co-IP; anti-HA agarose IP from lysates of HEK293 cells expressing HA-PEAK3FL WT or mutants (alone or with Flag-PEAK3FL WT), Western blot
T3 sequence: T1 chain

[6] = target: full length PEAK3 from insect cells (PEAK3^FL, S69 phosphorylated) (human) (UniProt Q6ZS72); test: SEC-MALS; PEAK3^FL:14-3-3ε,ζ complex co-purified from Sf21 cells (120 μg), Superdex 200 Increase 10/300, 20 mM HEPES pH 7.5, 150 mM NaCl, 1 mM TCEP
14-3-3ε (human), P62258 = target: T4, 14-3-3ε (human), P62258; test: crystal structure; 14-3-3ε (10 mg/ml) co-crystallised with 0.5 mM PEAK3^tandem-pS69 peptide, sitting drop, 20 °C, 2 M ammonium sulfate, 0.1 M sodium bicine pH 9.35, 5% MPD; both purified; conditions: remark: other sources report otherwise
T4 chain: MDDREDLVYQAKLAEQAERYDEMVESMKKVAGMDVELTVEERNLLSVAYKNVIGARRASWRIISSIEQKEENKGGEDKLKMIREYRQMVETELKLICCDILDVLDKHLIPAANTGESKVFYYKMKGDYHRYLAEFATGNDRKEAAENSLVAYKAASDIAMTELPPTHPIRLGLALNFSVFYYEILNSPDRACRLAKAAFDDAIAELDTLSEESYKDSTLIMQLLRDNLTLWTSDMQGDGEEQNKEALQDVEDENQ

[7] = target: T5, HA-tagged PEAK3^FL-L146E (human) (UniProt Q6ZS72); test: co-IP; HEK293 cells transfected with HA-PEAK3^FL forms (alone or with Flag-PEAK3^FL WT), lysates on anti-HA agarose at 4 °C overnight, Western blot
T5 sequence: T1 chain with L146E

[8] = target: T6, HA-tagged PEAK3^FL-C453E (human) (UniProt Q6ZS72); test: as above
T6 sequence: T1 chain with C453E

[9] = target: T7, HA-tagged PEAK3^FL-A436E (human) (UniProt Q6ZS72); test: as above
T7 sequence: T1 chain with A436E

B1: full length CrkII, dimer (CrkIIFL dimer), P46108-1 1-304 (natural protein)
chain: MAGNFDSEERSSWYWGRLSRQEAVALLQGQRHGVFLVRDSSTSPGDYVLSVSENSRVSHYIINSSGPRPPVPPSPAQPPPGVSPSRLRIGDQEFDSLPALLEFYKIHYLDTTTLIEPVSRSRQGSGVILRQEEAEYVRALFDFNGNDEEDLPFKKGDILRIRDKPEEQWWNAEDSEGKRGMIPVPYVEKYRPASASVSALIGGNQEGSHPQPLGGPEPGPYAQPSVNTPLPNLQNGPIYARVIQKRVPNAYDKTALALEVGELVKVTKINVSGQWEGECNGKRGHFPFTHVRLLDQQNPDEDFS
modifications: here or on the partner: biotin (EZ-Link NHS-PEG4-Biotin) in the SPR experiment only; biotin (EZ-Link NHS-PEG4-Biotin) in the SPR experiment only
B1 was tested, and the binding [1] was “binds” and the binding [2] was “binds”.

B2: endogenous CrkII (HEK293), P46108-1 1-304 (protein)
chain: B1 chain
B2 was tested, and the binding [3] was “binds” and the binding [4] was “binds”.

B3: Flag-tagged PEAK3FL WT (protein, UniProt Q6ZS72 1-473)
chain: T1 chain
In the case of B3, the binding [5] is reported as “binds”.

B4: full length PEAK3 from insect cells (PEAK3^FL, S69 phosphorylated) (protein, UniProt Q6ZS72 1-473)
chain: T1 chain
modifications: phosphoserine at 69; biotin (EZ-Link NHS-PEG4-Biotin) where immobilised for SPR
For B4, the binding [6] was “binds”.

B5: 14-3-3ε, P62258-1 1-255 (protein)
chain: T4 chain
For B5, the binding (14-3-3ε (human), P62258) was “binds”.

B6: Flag-tagged PEAK3^FL WT (protein, UniProt Q6ZS72 1-473)
chain: T1 chain
B6 was tested, and the binding [7] was “no binding”, the binding [8] was “no binding” and the binding [9] was “no binding”.
